Here are results for 1 substance from PMC12320246.

The assay concerns the target T1, His-tagged OLFML1 (OLFML1^His), exogenously expressed in HEK293T (human) (UniProt Q6UWY5).
T1 sequence: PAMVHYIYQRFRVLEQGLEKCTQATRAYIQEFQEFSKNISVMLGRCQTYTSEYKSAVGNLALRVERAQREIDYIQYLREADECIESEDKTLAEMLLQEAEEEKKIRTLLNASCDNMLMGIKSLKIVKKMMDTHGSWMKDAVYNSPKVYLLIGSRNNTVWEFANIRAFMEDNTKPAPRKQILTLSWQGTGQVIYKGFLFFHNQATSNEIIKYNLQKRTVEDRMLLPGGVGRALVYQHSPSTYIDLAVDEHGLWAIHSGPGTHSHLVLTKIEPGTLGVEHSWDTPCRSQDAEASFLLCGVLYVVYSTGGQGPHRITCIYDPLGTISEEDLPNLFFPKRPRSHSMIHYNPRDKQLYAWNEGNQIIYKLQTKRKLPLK
The experiment in a line: co-IP; HEK293T cells co-transfected with His-tagged OLFML1 and Flag-tagged IGF2BP3 constructs (whole or truncated); IP with anti-Flag or anti-His; immunoblot with anti-Flag or anti-His.

Results are given in words; binding and its absence hold for the method and conditions named. Binding seen in cells or lysates may run through a third protein. A result given as binding can be weak or reduced; the word gives no strength. Tags and fused reporters may be left off the sequences shown.

With “RRM+KH1-2 truncation of Flag-IGF2BP3 (domain or fragment)”, the binding entry is “binds”.
